The values that follow come from paper doi:10.1101/2025.01.12.632577.

By UniProt entry, the sequences of proteins in these tests, tags left out.
UniProt Q9UBN7: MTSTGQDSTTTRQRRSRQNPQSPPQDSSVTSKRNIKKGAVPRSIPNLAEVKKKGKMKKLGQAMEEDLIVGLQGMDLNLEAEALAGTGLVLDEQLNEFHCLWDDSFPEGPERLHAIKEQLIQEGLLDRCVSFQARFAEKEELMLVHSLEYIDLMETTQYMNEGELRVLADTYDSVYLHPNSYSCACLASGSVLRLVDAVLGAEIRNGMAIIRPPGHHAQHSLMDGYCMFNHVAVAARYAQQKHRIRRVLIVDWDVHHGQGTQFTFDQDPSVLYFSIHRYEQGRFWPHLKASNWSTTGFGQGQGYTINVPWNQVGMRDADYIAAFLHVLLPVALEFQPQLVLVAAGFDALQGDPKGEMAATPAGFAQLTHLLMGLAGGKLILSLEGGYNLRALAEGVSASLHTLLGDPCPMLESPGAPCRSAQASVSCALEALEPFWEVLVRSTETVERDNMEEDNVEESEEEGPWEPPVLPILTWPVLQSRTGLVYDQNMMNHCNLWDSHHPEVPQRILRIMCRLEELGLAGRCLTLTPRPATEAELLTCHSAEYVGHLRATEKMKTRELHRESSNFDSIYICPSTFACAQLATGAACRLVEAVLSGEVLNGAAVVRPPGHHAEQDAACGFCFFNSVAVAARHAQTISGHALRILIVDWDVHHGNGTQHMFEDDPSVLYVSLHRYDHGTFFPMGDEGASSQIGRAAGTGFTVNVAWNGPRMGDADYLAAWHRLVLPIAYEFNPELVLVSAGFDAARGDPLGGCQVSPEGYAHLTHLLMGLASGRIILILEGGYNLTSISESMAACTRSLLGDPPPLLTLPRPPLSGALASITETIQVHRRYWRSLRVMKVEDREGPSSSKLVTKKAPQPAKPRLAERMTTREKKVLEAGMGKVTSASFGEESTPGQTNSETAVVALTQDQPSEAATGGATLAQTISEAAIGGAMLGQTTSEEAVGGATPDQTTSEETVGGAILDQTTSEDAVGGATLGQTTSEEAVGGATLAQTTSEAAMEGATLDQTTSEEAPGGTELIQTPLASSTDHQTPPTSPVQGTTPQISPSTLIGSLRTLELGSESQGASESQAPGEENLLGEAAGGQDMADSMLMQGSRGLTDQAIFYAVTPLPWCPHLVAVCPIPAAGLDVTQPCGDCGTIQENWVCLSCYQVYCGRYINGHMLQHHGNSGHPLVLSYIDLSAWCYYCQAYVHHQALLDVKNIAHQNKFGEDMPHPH

No constants are given. Whether binding was seen depends on the method and setting. In cells and extracts the contact can be indirect. Sequences can lack the tags named with a protein.

The target of assay [1] is EGFP-HDAC6 (human) (UniProt Q9UBN7). The assay can be described thus: co-IP.
Assay [2] deals with T1, EGFP-SIRT2 (human) (UniProt Q8IXJ6).
T1 sequence: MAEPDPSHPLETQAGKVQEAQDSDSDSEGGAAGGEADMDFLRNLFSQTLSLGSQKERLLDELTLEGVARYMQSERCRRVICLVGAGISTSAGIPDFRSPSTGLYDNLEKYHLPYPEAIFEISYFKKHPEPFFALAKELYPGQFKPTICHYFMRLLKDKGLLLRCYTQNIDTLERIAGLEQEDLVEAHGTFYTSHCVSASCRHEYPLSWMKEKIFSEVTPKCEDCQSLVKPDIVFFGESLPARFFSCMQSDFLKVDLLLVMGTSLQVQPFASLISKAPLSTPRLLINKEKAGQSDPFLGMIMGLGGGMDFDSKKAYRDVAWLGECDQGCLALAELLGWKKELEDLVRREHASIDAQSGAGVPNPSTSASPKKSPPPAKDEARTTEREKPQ
The experiment in a line: co-IP.

B1: HA-BirA*-JPT2 (protein, UniProt Q9H910-1 1-190)
chain: MFQVPDSEGGRAGSRAMKPPGGESSNLFGSPEEATPSSRPNRMASNIFGPTEEPQNIPKRTNPPGGKGSGIFDESTPVQTRQHLNPPGGKTSDIFGSPVTATSRLAHPNKPKDHVFLCEGEEPKSDLKAARSIPAGAEPGEKGSARKAGPAKEQEPMPTVDSHEPRLGPRPRSHNKVLNPPGGKSSISFY
As for B1, the binding result in assay [1] and in assay [2] was “no binding” in each case.
